Assay results: patent publication US20230399388A1
Results are given in words; binding and its absence hold for the method and conditions named. Some entries that bind do so weakly or less than the wild type.

Columns and labels:
…-biotin [1] = biological target: T1, …-biotin; assay: Biacore kinetic studies
T1 sequence (peptide, C-terminal biotin): KRPPGFSPF

…-biotin (mouse) = biological target: T2, …-biotin (mouse); assay: Biacore kinetic studies
T2 sequence (peptide, C-terminal biotin): RRPPGFSPFR

…-biotin [2] = biological target: T1, …-biotin; assay: Biacore, biotin-peptide on SA chip
…-biotin [3] = biological target: T1, …-biotin; assay: ELISA, biotin-peptide on streptavidin plate
[4] = biological target: T3, biotin-…; assay: ELISA, biotin-peptide on streptavidin plate
T3 sequence (peptide, N-terminal biotin): KRPPGFSPF

biotin-RPPGFSPF = biological target: T4, biotin-RPPGFSPF; assay: ELISA, biotin-peptide on streptavidin plate
T4 sequence (peptide, N-terminal biotin): RPPGFSPF

RPPGFSPF-biotin = biological target: T5, RPPGFSPF-biotin; assay: ELISA, biotin-peptide on streptavidin plate
T5 sequence (peptide, C-terminal biotin): RPPGFSPF

Measured: binding

B1: I22 (antibody, V domains shown)
VH: EVQLQQSGAELVRSGASVKLSCTASGFNIKDYYMHWVKQRPEQGLEWIGWVDPENGDSDYAPKFQGKATMTADTSSNTVYLQFSSLTSEDTAVYYCNAFEYDGNYSPLDFWGQGTSVTVSS
VL: DIVMTQSPSSLSVSAGEKVTMSCKSSQSLLNSGNQKNYLAWYQQKPGQPPKLLIYGASTRESGVPDRFTGSGSGTDFTLTISSVQAEDLAVYYCQNDHSYPLTFGAGTKLELK
binds: all assays above
